Test results reported in paper PMC3679036.
Positions count from the first letter of the chain named. These are yes or no findings as the source states them, for the method shown. Binding seen in cells or lysates may run through a third protein. Some results given as binding are weak or reduced against the parent protein; the word gives no strength.

Protein sequences, listed by entry. Tags and fused reporters are not part of them.
UniProt Q9QUI0: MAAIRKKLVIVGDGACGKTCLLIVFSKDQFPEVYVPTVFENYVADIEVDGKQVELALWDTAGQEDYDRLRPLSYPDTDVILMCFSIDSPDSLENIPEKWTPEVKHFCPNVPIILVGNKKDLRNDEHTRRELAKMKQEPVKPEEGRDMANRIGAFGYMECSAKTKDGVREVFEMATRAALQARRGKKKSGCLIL

Legend:
[1] = target: T1, S34D-RhoGDI1 (phosphomimetic mutant) (human) (UniProt P52565); assay: co-IP; total lysates of mouse pancreatic acini expressing WT or mutant human RhoGDI1 by adenovirus (alone or with HA-CA-RhoA or HA-CA-Rac1); IP with rabbit anti-RhoGDI1, protein A-agarose; blots for RhoA, Rac1 or the HA tag
T1 sequence: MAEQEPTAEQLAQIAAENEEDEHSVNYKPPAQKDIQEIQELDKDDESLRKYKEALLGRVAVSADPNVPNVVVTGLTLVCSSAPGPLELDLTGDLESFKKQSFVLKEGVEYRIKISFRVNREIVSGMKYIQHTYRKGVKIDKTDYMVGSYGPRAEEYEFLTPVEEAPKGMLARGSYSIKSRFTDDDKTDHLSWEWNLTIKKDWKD

[2] = target: T2, S96A-RhoGDI1 (phosphodefective mutant) (human) (UniProt P52565); assay: as above
T2 sequence: T1 sequence with D34S, S96A

[3] = target: T3, wild-type (WT) human RhoGDI1, overexpressed in pancreatic acini (human) (UniProt P52565); assay: as above
T3 sequence: T1 sequence with D34S

[4] = target: T4, S34A-RhoGDI1 (phosphodefective mutant) (human) (UniProt P52565); assay: as above
T4 sequence: T1 sequence with D34A

[5] = target: RhoGDI1 (endogenous, mouse pancreatic acini) (mouse (endogenous in pancreatic acini of ICR mice)) (UniProt Q99PT1); assay: co-IP; cytosolic fraction (1000 µg) of mouse pancreatic acini rotated overnight at 4°C with rabbit anti-RhoGDI1, protein A-agarose; blots for RhoA, Rac1, Cdc42; acini with or without CCK (300 pM) for 5, 15 or 30 min

Measured: binding

RhoA (endogenous, mouse pancreatic acini) (from UniProt Q9QUI0 1-193)
binds: all assays above
